Values of other authors in US6475746B1, “Method of obtaining a composition comprising a 5-HT1D selective compound” (Synaptic Pharmaceutical Corporation, priority 1990, dated 2002).
pKi: −log10 of the molar value.

Molecular target: Human Native Membranes 5-HT1D
Conditions: literature values (footnotes a, b, c), read-out: Estimated equilibrium dissociation constants (Ki values); cited from earlier work

SMILES	pKi
CC[C@@H](CO)NC(=O)[C@@H]1C=C2c3cccc4c3c(cn4C)C[C@H]2N(C)C1 [Methysergide]	7.85
O=C(CCCN1CCC2(CC1)C(=O)NCN2c1ccccc1)c1ccc(F)cc1 [Spiperone]	< 5.00
